From article doi:10.1101/2025.06.04.657875 come the findings set out here.

The chains behind the UniProt entries cited, without tags or fusion partners. Where a name states a change or a piece, a line headed by the entry shows the natural chain unless it says otherwise.
UniProt Q9VM64: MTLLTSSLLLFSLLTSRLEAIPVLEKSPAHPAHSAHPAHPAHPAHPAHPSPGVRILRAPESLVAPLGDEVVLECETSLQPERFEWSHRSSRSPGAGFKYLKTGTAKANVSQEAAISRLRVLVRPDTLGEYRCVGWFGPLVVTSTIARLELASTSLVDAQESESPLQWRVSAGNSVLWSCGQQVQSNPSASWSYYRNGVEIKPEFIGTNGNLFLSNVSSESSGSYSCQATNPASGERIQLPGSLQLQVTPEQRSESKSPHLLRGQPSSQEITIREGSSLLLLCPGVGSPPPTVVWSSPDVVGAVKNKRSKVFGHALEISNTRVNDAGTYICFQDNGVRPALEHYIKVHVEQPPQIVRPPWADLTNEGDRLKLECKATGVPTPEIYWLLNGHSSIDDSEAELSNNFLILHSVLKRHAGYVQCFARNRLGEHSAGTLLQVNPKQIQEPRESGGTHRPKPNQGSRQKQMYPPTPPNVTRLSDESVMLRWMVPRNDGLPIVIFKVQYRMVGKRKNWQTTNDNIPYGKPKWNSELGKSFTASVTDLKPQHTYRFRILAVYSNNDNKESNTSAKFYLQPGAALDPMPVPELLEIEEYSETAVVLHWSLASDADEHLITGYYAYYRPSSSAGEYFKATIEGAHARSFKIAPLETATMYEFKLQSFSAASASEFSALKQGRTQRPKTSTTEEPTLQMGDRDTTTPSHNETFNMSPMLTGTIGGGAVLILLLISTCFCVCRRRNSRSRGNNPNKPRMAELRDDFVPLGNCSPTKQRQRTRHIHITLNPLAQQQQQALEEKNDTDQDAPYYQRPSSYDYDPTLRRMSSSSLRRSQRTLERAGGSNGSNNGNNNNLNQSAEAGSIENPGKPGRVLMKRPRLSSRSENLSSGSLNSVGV

These are yes or no findings as the source states them, for the method shown. For some assays here: Binding calls can cover weak binding; strength is not graded here. Tags and fused reporters may be left off the sequences shown. For some assays here: Binding seen in cells or lysates may run through a third protein.

The target in test [1] is IhogFn1***:RFP (Ihog with three substitutions in the Fn1 domain that disrupt Hh binding) (Drosophila melanogaster) (UniProt Q9VM64). Briefly: fluorescence imaging of tissue.
Test [2] deals with IhogΔIg:RFP (Ihog lacking the Ig domains, tagged with RFP) (Drosophila melanogaster) (UniProt Q9VM64). Briefly: co-IP.

B1: Shf:GFP (endogenous Shf tagged with GFP, shfGFP knock-in allele) (protein, UniProt Q9W3W5 31-456)
chain: RQQHHNRNNNNNNRRADSSSSEEGHGNTSDGLDNFADQDASFVGHGHQPRRGQRKKQQGGGGGGSGGGGGNGGGGGSRHNRNEESGISLWINEQQLKMLTALYFPQGYSERLYAIHNSRVTNDLRDTTLYNFLVIPSEVNYVNFTWKSGRRKYFYDFDRLQTMDESILKAPTLSIRKSGRIPQEQKNFSIFLPCTGNSSGTASFNVGLKIQTRHNKPLSGTPIRLNFKKECAHRGVYDIDASNPTSLTTLQECSLKCGKNGYCNEHHICKCNVGYTGQYCETAFCFPQCLNGGNCTAPSVCTCPEGYQGTQCEGGICKDKCLNGGKCIQKDKCQCSKGYYGLRCEYSKCVIPCKNEGRCIGNNLCRCPNGLRGDHCEIGRKQRSICKCRNGTCVSHKHCKCHPGFYGRHCNGRKRRHVHRNDDSKF
As to B1, the binding entry in test [1] was “binds”.

B2: Shf:V5 (wild-type Shifted/DmWif1 tagged with V5) (protein, UniProt Q9W3W5 31-456)
chain: B1 chain
Regarding B2, the binding result in test [2] is given as “no binding”.
